Data reported in the supplement of paper PMC3682954.
Several values for one entry are separate records, joined by “and”; a condition that tells them apart may be missing. Equal entries are not always repeated. Structures can show the parent of a compound that is named as a salt. ± gives the standard deviation of the averaged measurements. The list shows a part of the results. Many values rest on one well or one pass, so single values are uncertain.

Test system: RAW 264.7
Assay: cell viability (MTT) relative to vehicle control; higher = more viable cells
Conditions: stimulus: HMGB1 5 ug/ml, 18 h
[1] = compound concentration: 1 ug/ml

Structure (SMILES) | cell viability (compound concentration: 3 uM) | cell viability [1]
CCCCc1ncc(/C=C(\Cc2cccs2)C(=O)O)n1Cc1ccc(C(=O)O)cc1 [Eprosartan] | 92% | 
N[C@@H](Cc1ccc(O)c(O)c1)C(=O)O [Levodopa] | 98.3 ± 8.2% | 
N[C@@H](Cc1ccc(O)c(O)c1)C(=O)O [L-3,4-Dihydroxyphenylalanine] | 99.9% | 
N[C@@H](Cc1ccc(O)c(O)c1)C(=O)O | 110% | 
CN1CCN2c3ccccc3Cc3ccccc3C2C1 (centres undefined) | 101% | 
CN1CCN2c3ccccc3Cc3ccccc3C2C1 (centres undefined) [Mianserin hydrochloride] | 103% | 
CN1CCN2c3ccccc3Cc3ccccc3C2C1 (centres undefined) [Mianserin] | 115% | 
CN1CCN2c3ccccc3Cc3ccccc3C2C1 (centres undefined) [Mianserine hydrochloride] | 100% | 
CCN1CCCC1CNC(=O)c1cc(S(N)(=O)=O)ccc1OC (single isomer, unassigned; (-)) [(-)-Sulpiride] | 116% | 
CCC=CCC1C(=O)CCC1CC(=O)O (racemic) [(+/-)-Jasmonic acid] |  | 104%
O=C(O)CCC(=O)c1ccc(-c2ccccc2)cc1 [Fenbufen] | 106 ± 16% | 
O=C(O)CCC(=O)c1ccc(-c2ccccc2)cc1 | 107% | 
O=C(O)c1coc2ccc(F)cc2c1=O [6-Fluorochromone-3-carboxylic acid] |  | 112%
Nc1ncn(C2OC(CO)C(O)C2O)c(=O)n1 (centres undefined) [Azacytidine-5] | 56.5% | 
C[N+](C)(C)CCOC(N)=O [Carbamylcholine] | 117% | 
C[N+](C)(C)CCOC(N)=O [Carbachol] | 111 ± 8.7% | 
C[N+](C)(C)CCOC(N)=O | 106% | 
CC(C)(C)NC[C@H](O)COc1cccc2c1CCCC2=O [(-) -Levobunolol hydrochloride] | 85.5% | 
CCN1C(=O)C=CC1=O [N-Ethylmaleimide] | 105% | 
O=C(NC(Cc1cc(=O)[nH]c2ccccc12)C(=O)O)c1ccc(Cl)cc1 (centres undefined) | 110% | 
O=C(NC(Cc1cc(=O)[nH]c2ccccc12)C(=O)O)c1ccc(Cl)cc1 (centres undefined) [Rebamipide] | 104 ± 2.2% | 
O=C1c2c(O)ccc(O)c2C(=O)c2c(NCCNCCO)ccc(NCCNCCO)c21 [Mitoxantrone] | 31.8 ± 26% | 
O=C1c2c(O)ccc(O)c2C(=O)c2c(NCCNCCO)ccc(NCCNCCO)c21 [Mitoxantrone dihydrochloride] | 2.95% | 
O=C1c2c(O)ccc(O)c2C(=O)c2c(NCCNCCO)ccc(NCCNCCO)c21 | 5.55 ± 5.6% | 
Cc1nc2sccn2c(=O)c1CCN1CCC(=C(c2ccc(F)cc2)c2ccc(F)cc2)CC1 [Ritanserin] | 122% | 
Cc1nc2sccn2c(=O)c1CCN1CCC(=C(c2ccc(F)cc2)c2ccc(F)cc2)CC1 | 92.9% | 

Quoted from the entries so far (3 entries):
Structure (SMILES) | cell viability (compound concentration: 3 uM) | cell viability [1]
Nc1ncn(C2OC(CO)C(O)C2O)c(=O)n1 (centres undefined) [Azacytidine-5] | 56.5% | 
C[N+](C)(C)CCOC(N)=O [Carbamylcholine] | 117% | 
C[N+](C)(C)CCOC(N)=O [Carbachol] | 111 ± 8.7% | 

(continued)

Structure (SMILES) | cell viability (compound concentration: 3 uM) | cell viability [1]
CO[C@H]1C[C@H](O[C@@H]2/C(C)=C/C[C@@H]3C[C@@H](C[C@]4(CC[C@H](C)[C@@H](C5CCCCC5)O4)O3)OC(=O)[C@@H]3C=C(C)/C(=N/O)[C@H]4OC/C(=C\C=C\[C@@H]2C)[C@]43O)O[C@@H](C)[C@@H]1O | 88.1% | 
C[C@H](CCC(=O)O)[C@H]1CC[C@H]2[C@@H]3C(=O)C[C@@H]4CC(=O)CC[C@]4(C)[C@H]3CC(=O)[C@]12C [Dehydrocholic acid] | 92% | 97.4%
C[C@H](CCC(=O)O)[C@H]1CC[C@H]2[C@@H]3C(=O)C[C@@H]4CC(=O)CC[C@]4(C)[C@H]3CC(=O)[C@]12C | 98.8% and 102% | 
CCOC(=O)C1=C(C)NC(C)=C(C(=O)OC)C1c1cccc(Cl)c1Cl (centres undefined) [Felodipine] | 102 ± 12% | 
COc1cc2nc(N3CCCN(C)CC3)nc(NC3CCN(Cc4ccccc4)CC3)c2cc1OC | 98.7% | 
O=S(=O)(c1cccc2cnccc12)N1CCCNCC1 | 106% | 
CCc1nn(CCCN2CCN(c3cccc(Cl)c3)CC2)c(=O)n1CCOc1ccccc1 [Nefazodone] | 93.8 ± 1.5% | 
CCc1nn(CCCN2CCN(c3cccc(Cl)c3)CC2)c(=O)n1CCOc1ccccc1 [Nefazodone HCl] | 103% | 
NC1CONC1=O (racemic) [DL-Cycloserine] | 108% | 
CN(C)CCCc1cc(C(=O)Nc2ccc(-c3ccncc3)cc2)ccc1O | 111% | 
CC(=O)Nc1ccc(OC(C)=O)cc1 | 111% | 
NC1CCN(c2c(F)cc3c(=O)c(C(=O)O)cn(C4CC4)c3c2Cl)C1 (centres undefined) [Clinafloxacin] | 105% | 
NC[C@@H]1O[C@H](O[C@H]2[C@@H](O)[C@H](O[C@@H]3[C@@H](O)[C@H](N)C[C@H](N)[C@H]3O[C@H]3O[C@H](CN)[C@@H](O)[C@H](O)[C@H]3N)O[C@@H]2CO)[C@H](N)[C@@H](O)[C@@H]1O [Neomycin B sulfate; Neomycin Trisulfate] |  | 116%
NC[C@@H]1O[C@H](O[C@H]2[C@@H](O)[C@H](O[C@@H]3[C@@H](O)[C@H](N)C[C@H](N)[C@H]3O[C@H]3O[C@H](CN)[C@@H](O)[C@H](O)[C@H]3N)O[C@@H]2CO)[C@H](N)[C@@H](O)[C@@H]1O [Neomycin] | 102% | 
CCC1(C)CC(=O)NC1=O (centres undefined) | 104% | 
CCC1(C)CC(=O)NC1=O (centres undefined) [Ethosuximide] | 101 ± 6.2% | 
CC(NCCc1ccc(O)cc1)C(O)c1ccc(O)cc1 (centres undefined) | 108% | 
CC(NCCc1ccc(O)cc1)C(O)c1ccc(O)cc1 (centres undefined) [Ritodrine hydrochloride] | 111 ± 19% | 
CC(=O)O[C@H]1[C@H](C)OC=C[C@@H]1OC(C)=O [3,4-Di-O-acetyl-6-deoxy-L-glucal] |  | 92.2%
Cc1nc2c([nH]1)c(=O)n(C)c(=O)n2Cc1ccco1 [Furafylline] | 112 ± 3% | 
C[N+](C)(CCOc1ccccc1)Cc1ccccc1.O=C([O-])c1cc2ccccc2cc1O [Bephenium hydroxynaphthoate] | 89.9% | 
OC[C@H]1NC[C@@H](O)[C@@H]1O [1,4-Dideoxy-1,4-imino-D-arabinitol] | 110% | 
CCCNC(C)(C)COC(=O)c1ccccc1 [Meprylcaine hydrochloride] | 97.4% | 
NNC(=O)c1ccncc1.Nc1ccc(C(=O)O)c(O)c1 | 113% | 
CCCc1nn(C)c2c(=O)[nH]c(-c3cc(S(=O)(=O)N4CCN(C)CC4)ccc3OCC)nc12 [Sildenafil] | 121 ± 9.9% | 
COc1cc(CNC(=O)CCCCCCC(C)C)ccc1O [Dihydrocapsaicin] | 102% | 88.7%
